This is an account of results in patent publication US20190094246A1 (AMONETA DIAGNOSTICS SAS, priority 2016, published 2019).

Data set [1] deals with RBCs from human subjects. In words: LOD and LLOQ of the RBC staining assay. The class given is cell-based. The conditions noted are these: RBCs 200 000 cells/mL.
Data set [2] can be described thus: general procedure: Fmoc solid-phase peptide synthesis; H-Ala-TentaGel R PHB; Polystyrene AM RAM (Rapp Polymere); HATU/NMM; DIC/OxymaPure. The conditions noted are these: conjugation step.
Where [3] appears, read: Agilent LC-MS system Infinity 1200 with 6230-TOF, C18 column.

`COCCOCC#CB(C#CCOCCOC)n1c(C)cc(C)c1/C(=C1\N=C(C)C=C1C)c1ccc(C(=O)NCCCn2cc(C3=C(c4cn(C)c5ccccc45)C(=O)NC3=O)c3ccccc32)cc1` [Ex. 9]: the “Compound concentration to obtain LLOQ” value in data set [1] was 0.01 µM. Consider “Lys4N-2-(3-CO—CH2—S-2,5-dioxo-pyrrolidinyl)-ethylamido-Bodipyd-Beta-Amyloid (1-42)”, for which, in data set [2] (setting [3]), the “final LC-MS purity” value came to 90.2%. In turn, Palmitoyl-KKFFVLKG-X—NH2 gave a conjugation yield in data set [2] of 0.2%. Besides, the “final purity (method not given)” value in data set [2] (setting [3]) was found to be 93.7%.
